In test [1] the target is IVa2 protein of human adenovirus serotype 5 (HAdV5), expressed from the virus (human adenovirus serotype 5 (HAdV5)) (UniProt P03271). Nature of the test: non-reducing SDS-PAGE with Western blot; lysates of HAdV5-infected cells, 36 h post-infection, 20 ug; Laemmli buffer with 2% SDS, with (boiled 5 min) or without 5% beta-mercaptoethanol; blots with anti-IVa2 or anti-33K.
Test [2] has the same target. Nature of the test: condition: only reducing conditions (5% beta-mercaptoethanol, boiled); non-reducing SDS-PAGE with Western blot; lysates of HAdV5-infected cells, 36 h post-infection, 20 ug; Laemmli buffer with 2% SDS, with (boiled 5 min) or without 5% beta-mercaptoethanol; blots with anti-IVa2 or anti-33K. In general terms: A western blot detects proteins with antibodies after separation by electrophoresis.

Test [3] deals with HAdV5 IVa2 expressed from pcDNA-IVa2 in 293 cells (human adenovirus serotype 5 (HAdV5)) (UniProt P03271). As to the kind of experiment: non-reducing SDS-PAGE with Western blot; lysates of transiently transfected cells, 36 h post-transfection (pcDNA-IVa2 in 293 or 293-33K; pcDNA-33K in 293 or 293-IVa2); with or without beta-mercaptoethanol; blots with anti-IVa2 or anti-33K.
In test [4] the target is 6His-tagged HAdV5 IVa2, purified from E. coli (human adenovirus serotype 5 (HAdV5)) (UniProt P03271). Nature of the test: condition: only reducing conditions (5% beta-mercaptoethanol, boiled); non-reducing SDS-PAGE with Coomassie staining or Western blot; purified bacterial IVa2 or 33K; Laemmli buffer with 2% SDS, with (boiled 5 min) or without 5% beta-mercaptoethanol; both purified.

No constants are given. Whether binding was seen depends on the method and setting. Some binding calls cover weakened binding; strength is not graded here. For some of these results: Tags and fused reporters may be left off the sequences shown.

B1: IVa2 protein of human adenovirus serotype 5 (HAdV5), expressed from the virus (protein, UniProt P03271 1-449)
chain: METRGRRPAALQHQQDQPQAHPGQRAARSAPLHRDPDYADEDPAPVERHDPGPSGRAPTTAVQRKPPQPAKRGDMLDRDAVEQVTELWDRLELLGQTLKSMPTADGLKPLKNFASLQELLSLGGERLLADLVRENMRVRDMLNEVAPLLRDDGSCSSLNYQLHPVIGVIYGPTGCGKSQLLRNLLSSQLISPTPETVFFIAPQVDMIPPSELKAWEMQICEGNYAPGPDGTIIPQSGTLRPRFVKMAYDDLILEHNYDVSDPRNIFAQAAARGPIAIIMDECMENLGGHKGVSKFFHAFPSKLHDKFPKCTGYTVLVVLHNMNPRRDMAGNIANLKIQSKMHLISPRMHPSQLNRFVNTYTKGLPLAISLLLKDIFRHHAQRSCYDWIIYNTTPQHEALQWCYLHPRDGLMPMYLNIQSHLYHVLEKIHRTLNDRDRWSRAYRARKTPK
As for B1, the binding entry in test [1] is given as “binds”; in test [2], “no binding”.

B2: HAdV5 IVa2 expressed from pcDNA-IVa2 in 293 cells (protein, UniProt P03271 1-449)
chain: METRGRRPAALQHQQDQPQAHPGQRAARSAPLHRDPDYADEDPAPVERHDPGPSGRAPTTAVQRKPPQPAKRGDMLDRDAVEQVTELWDRLELLGQTLKSMPTADGLKPLKNFASLQELLSLGGERLLADLVRENMRVRDMLNEVAPLLRDDGSCSSLNYQLHPVIGVIYGPTGCGKSQLLRNLLSSQLISPTPETVFFIAPQVDMIPPSELKAWEMQICEGNYAPGPDGTIIPQSGTLRPRFVKMAYDDLILEHNYDVSDPRNIFAQAAARGPIAIIMDECMENLGGHKGVSKFFHAFPSKLHDKFPKCTGYTVLVVLHNMNPRRDMAGNIANLKIQSKMHLISPRMHPSQLNRFVNTYTKGLPLAISLLLKDIFRHHAQRSCYDWIIYNTTPQHEALQWCYLHPRDGLMPMYLNIQSHLYHVLEKIHRTLNDRDRWSRAYRARKTPK
Regarding B2, the binding result in test [3] was “binds”.

B3: 6His-tagged HAdV5 IVa2, purified from E. coli (natural protein)
chain: METRGRRPAALQHQQDQPQAHPGQRAARSAPLHRDPDYADEDPAPVERHDPGPSGRAPTTAVQRKPPQPAKRGDMLDRDAVEQVTELWDRLELLGQTLKSMPTADGLKPLKNFASLQELLSLGGERLLADLVRENMRVRDMLNEVAPLLRDDGSCSSLNYQLHPVIGVIYGPTGCGKSQLLRNLLSSQLISPTPETVFFIAPQVDMIPPSELKAWEMQICEGNYAPGPDGTIIPQSGTLRPRFVKMAYDDLILEHNYDVSDPRNIFAQAAARGPIAIIMDECMENLGGHKGVSKFFHAFPSKLHDKFPKCTGYTVLVVLHNMNPRRDMAGNIANLKIQSKMHLISPRMHPSQLNRFVNTYTKGLPLAISLLLKDIFRHHAQRSCYDWIIYNTTPQHEALQWCYLHPRDGLMPMYLNIQSHLYHVLEKIHRTLNDRDRWSRAYRARKTPK
notes: IVa2 of human adenovirus serotype 5; synthetic gene cassette, codon-optimized for bacteria, in pET28a (pET28-IVa2); the results speak of the full-length IVa2 band; A faster migrating band, perhaps a degradation product of IVa2, was also in the preparation; also called purified IVa2; source: E. coli BL21 (DE3) pLysS, purified (HiTrap NiNTA, HiPrep 16/10 SP-XL cation exchange)
Consider B3, for which the binding result in test [4] is listed as “no binding”.

Values taken from paper PMC4404914, “Adenoviral L4 33K forms ring-like oligomers and stimulates ATPase activity of IVa2: implications in viral genome packaging” (Frontiers in Microbiology, 2015).
